# From article PMC11040670, “Mechanistic and Kinetic Insights into Cellular Uptake of Biomimetic Dinitrosyl Iron Complexes and Intracellular Delivery of NO for Activation of Cytoprotective HO-1” (JACS Au, 2024)
# System: MSC/N2a/HCEC
# Assay: Whole-cell EPR, results stated jointly for MSC/N2a/HCEC
# Assay type: cell-based
# Settings: for formation of mononuclear DNICs relative to administered dinuclear DNIC (spin quantitation at tmax): MSC/N2a/HCEC, standard [PPN][(NO)2Fe(S5)]
# Protocol: Cellular uptake of DNIC–COOH and intracellular formation/decomposition of mononuclear DNICs in MSC/N2a/HCEC cells were investigated using EPR spectroscopy. Briefly, cells were seeded into two (or one) 100 mm dish(es) at a density of 2 × 10^6 cells/dish and incubated at 37 °C overnight. On the next day, cells were treated with 100 μM of DNIC–COOH (or 100 μM of DNIC–COOH to N2a and 75 μM of DNIC–COOH to HCEC) and incubated for 0, 0.5, 1, 2, 3, 4, 8, and 24 h, respectively. After removal of the supernatant solution, cells were washed with DPBS before addition of 1 mL of trypsin (0.05%)/EDTA (0.53 mM) and incubation for 5 min at 37 °C. After the obtained cell suspension solutions from two 100 mm dishes were combined and centrifuged at 100g for 5 min, the supernatant was removed before addition of 100 μL of αMEM to DNIC-treated MSC (or MEM to DNIC-treated N2a and HSFM to DNIC-treated HCEC). This solution was then transferred into EPR quartz tube and frozen in N2(l) before the EPR measurements. For each measured EPR spectrum, double integration was executed to obtain the integrated EPR intensity under each condition. Moreover, time-dependent decay of integrated EPR signal intensity after treatment of DNIC–COOH was fit to pseudo-first-order kinetics in order to determine the intracellular half-life for EPR-active mononuclear DNIC. Three independent experiments were executed to measure the average half-life for intracellular decomposition of EPR-active mononuclear DNIC after treatment with DNIC–COOH at 37 °C. On the other hand, at the time point with maximum integrated EPR signal intensity, spin quantitation of intracellular EPR-active DNICs was performed using mononuclear DNIC [PPN][(NO)2Fe(S5)] as a standard according to the methodology used in the previous work.[50] Cellular uptake of DNIC–COOMe (2.5 μM to MSC, 10 μM to N2a, or 1 μM to HCEC) and intracellular formation/decomposition of EPR-active mononuclear DNICs were investigated using EPR spectroscopy in a similar manner.
# Studies of cellular uptake mechanisms were investigated using EPR spectroscopy in combination with pretreatments of alternative inhibitors. After the MSC cells were seeded into two (or one) 100 mm dish(es) at a density of 2 × 10^6 cells/dish and incubated at 37 °C overnight, sequential treatments of 50 μM of NEM for 0.5 h and 100 μM of DNIC–COOH for 2 h were performed before the treated MSC cells were collected for EPR measurement following the procedure described above. […]
SMILES,formation of mononuclear DNICs relative to administered dinuclear DNIC (spin quantitation at tmax),change of whole-cell EPR signal intensity (pretreatment of NEM (Figure S10)),change of whole-cell EPR signal intensity (using NEM-treated FBS (Figure S10))
"COC(=O)CC[SH]1[Fe]([N]=O)([N]=O)[SH](CCC(=O)OC)[Fe]1([N]=O)[N]=O (stereo not shown) [DNIC–COOMe, [(NO)2Fe(μ-SCH2CH2COOCH3)2Fe(NO)2]]",20–40%,–,–
"O=[N][Fe]1([N]=O)[SH](CCC(=O)O)[Fe]([N]=O)([N]=O)[SH]1CCC(=O)O (stereo not shown) [DNIC–COOH, [(NO)2Fe(μ-SCH2CH2COOH)2Fe(NO)2]]",~1%,no change,slight increase
